Data taken from patent US20220273562A1, “HYDROPHOBICALLY ASSOCIATING POLYMER COUNTER ION PAIR COMPLEXES” (MALVERN COSMECEUTICS LIMITED, priority 2019, published 2022).
Counter-ions that a name gives are not always drawn.

Experiment: Stability of the mixtures after 2-4 mths at 4° C.
Type: physicochemical
Set-up: key: S-stable; PS—partially stable; NS—not stable
Conditions: SMA 1:1 50 mg, DLPC 20 mg, 2 ml; amine HCl: isopentylamine 3 mg, isobutylamine 9 mg, tyramine 5-6 mg, diphenhydramine 2.5-4 mg, phenylalanine ethyl ester 10 mg, tolazoline 5 mg, naphazoline 8 mg total

- Stability* After 2-4 mths + at 4° C.: S
SMILES: CN(C)CCOC(c1ccccc1)c1ccccc1 [Diphenhydramine, diphenhydramine hydrochloride, reference compound]
